Values of other authors as cited in US20230310374A1, “COMPOSITIONS AND METHODS FOR TREATING HEADACHE OR FACIAL PAIN” (priority 2021, published 2023).
Like-named read-outs stand apart in the source and are kept apart here. For some of these results: At least one structure is not confirmed: it was looked up by name or label, or the drawing left a doubt. Some results were stated once for a whole list of compounds, not compound by compound.

Legend:
humans = settings: cited from earlier work
[1] = system: patients with chronic cluster headache; settings: cited from earlier work

In the case of `COc1ccc2[nH]cc(CCN(C)C)c2c1` [5-MeO-DMT, 5-methoxy-N,N-dimethyltryptamine], the “time of peak effects” value (humans; insufflation of 10 mg) is listed as 35 to 40 min.
In the case of `CN(C)CCc1c[nH]c2ccc(O)cc12` [5-OH-DMT, 5-hydroxy-N,N-dimethyltryptamine], the “time of peak effects” value (humans; insufflation of 40 mg) is given as 35 to 40 min.
In the case of `CN(C)CCc1c[nH]c2cccc(OP(=O)(O)O)c12` [psilocybin], the “duration of complete remission in one of 10 patients” value ([1]; beginning one day after the first psilocybin session) is given as 21 weeks and the “chronic cluster headache attack frequency” value ([1]; three doses, each separated by seven days) is given as “prophylactically reduced chronic cluster headache attack frequency”.
